Consider six substances from publication PMC5401710 (International Journal of Peptide Research and Therapeutics, 2016).

For part of these data: Strings that start with PEPTIDE1 are HELM notation: dots part the residues, brackets hold end groups and non-standard residues.

Details in all cases: whole synthesis
Data set [1] in a line: general procedure: Fmoc solid-phase peptide synthesis; Rink amide resin; TBTU/HOBt.
A short description of data set [2]: general procedure: Fmoc solid-phase peptide synthesis; 2-chlorotrityl chloride resin; TBTU/HOBt.
Data set [3] can be described thus: general procedure: Fmoc solid-phase peptide synthesis; 1,5-diaminopentanetrityl resin; TBTU/HOBt.

With H–Ala–Phe–Lys–EACA–NH2, the isolated yield in data set [1] is reported as 50%.

In turn, H–D-Ala–Phe–Lys–EACA–NH2 registered an isolated yield in data set [1] of 48%.

As to PEPTIDE1{A.F.K.[EACA]}$$$$V2.0, the isolated yield in data set [2] worked out at 47%.

“PEPTIDE1{[dA].F.K.[EACA].[NH(CH2)5NH2]}$$$$V2.0” returned an isolated yield in data set [3] of 38%.

In data set [2], PEPTIDE1{[dA].F.K.[EACA]}$$$$V2.0 showed an isolated yield of 49%.

In turn, “PEPTIDE1{A.F.K.[EACA].[NH(CH2)5NH2]}$$$$V2.0” displayed an isolated yield in data set [3] of 37%.
